Results published in paper PMC3136934.
Results are given in words; binding and its absence hold for the method and conditions named. In cells and extracts the contact can be indirect. Some entries that bind do so weakly or less than the wild type.

By UniProt entry, the sequences of proteins in these tests, tags left out.
UniProt P40763: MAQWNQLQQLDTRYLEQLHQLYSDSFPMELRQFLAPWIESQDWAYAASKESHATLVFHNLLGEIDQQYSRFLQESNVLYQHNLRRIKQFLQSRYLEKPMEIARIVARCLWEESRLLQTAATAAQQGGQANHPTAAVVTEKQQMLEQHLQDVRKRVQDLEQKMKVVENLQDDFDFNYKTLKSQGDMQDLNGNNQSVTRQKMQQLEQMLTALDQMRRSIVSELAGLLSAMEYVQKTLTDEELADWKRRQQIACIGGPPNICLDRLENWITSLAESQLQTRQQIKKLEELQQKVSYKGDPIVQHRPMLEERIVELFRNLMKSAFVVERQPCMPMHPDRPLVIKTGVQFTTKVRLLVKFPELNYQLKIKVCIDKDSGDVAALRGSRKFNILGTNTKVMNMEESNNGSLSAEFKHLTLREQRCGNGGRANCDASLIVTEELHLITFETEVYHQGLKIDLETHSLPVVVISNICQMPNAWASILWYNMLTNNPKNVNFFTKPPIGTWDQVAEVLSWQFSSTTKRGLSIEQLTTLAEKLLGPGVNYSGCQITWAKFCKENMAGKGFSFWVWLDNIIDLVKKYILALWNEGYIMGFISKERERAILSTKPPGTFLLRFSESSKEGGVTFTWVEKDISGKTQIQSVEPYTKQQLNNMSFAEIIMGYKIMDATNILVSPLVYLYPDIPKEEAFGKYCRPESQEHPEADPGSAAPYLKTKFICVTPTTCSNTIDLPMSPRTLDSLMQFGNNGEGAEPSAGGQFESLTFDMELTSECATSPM
UniProt Q09472: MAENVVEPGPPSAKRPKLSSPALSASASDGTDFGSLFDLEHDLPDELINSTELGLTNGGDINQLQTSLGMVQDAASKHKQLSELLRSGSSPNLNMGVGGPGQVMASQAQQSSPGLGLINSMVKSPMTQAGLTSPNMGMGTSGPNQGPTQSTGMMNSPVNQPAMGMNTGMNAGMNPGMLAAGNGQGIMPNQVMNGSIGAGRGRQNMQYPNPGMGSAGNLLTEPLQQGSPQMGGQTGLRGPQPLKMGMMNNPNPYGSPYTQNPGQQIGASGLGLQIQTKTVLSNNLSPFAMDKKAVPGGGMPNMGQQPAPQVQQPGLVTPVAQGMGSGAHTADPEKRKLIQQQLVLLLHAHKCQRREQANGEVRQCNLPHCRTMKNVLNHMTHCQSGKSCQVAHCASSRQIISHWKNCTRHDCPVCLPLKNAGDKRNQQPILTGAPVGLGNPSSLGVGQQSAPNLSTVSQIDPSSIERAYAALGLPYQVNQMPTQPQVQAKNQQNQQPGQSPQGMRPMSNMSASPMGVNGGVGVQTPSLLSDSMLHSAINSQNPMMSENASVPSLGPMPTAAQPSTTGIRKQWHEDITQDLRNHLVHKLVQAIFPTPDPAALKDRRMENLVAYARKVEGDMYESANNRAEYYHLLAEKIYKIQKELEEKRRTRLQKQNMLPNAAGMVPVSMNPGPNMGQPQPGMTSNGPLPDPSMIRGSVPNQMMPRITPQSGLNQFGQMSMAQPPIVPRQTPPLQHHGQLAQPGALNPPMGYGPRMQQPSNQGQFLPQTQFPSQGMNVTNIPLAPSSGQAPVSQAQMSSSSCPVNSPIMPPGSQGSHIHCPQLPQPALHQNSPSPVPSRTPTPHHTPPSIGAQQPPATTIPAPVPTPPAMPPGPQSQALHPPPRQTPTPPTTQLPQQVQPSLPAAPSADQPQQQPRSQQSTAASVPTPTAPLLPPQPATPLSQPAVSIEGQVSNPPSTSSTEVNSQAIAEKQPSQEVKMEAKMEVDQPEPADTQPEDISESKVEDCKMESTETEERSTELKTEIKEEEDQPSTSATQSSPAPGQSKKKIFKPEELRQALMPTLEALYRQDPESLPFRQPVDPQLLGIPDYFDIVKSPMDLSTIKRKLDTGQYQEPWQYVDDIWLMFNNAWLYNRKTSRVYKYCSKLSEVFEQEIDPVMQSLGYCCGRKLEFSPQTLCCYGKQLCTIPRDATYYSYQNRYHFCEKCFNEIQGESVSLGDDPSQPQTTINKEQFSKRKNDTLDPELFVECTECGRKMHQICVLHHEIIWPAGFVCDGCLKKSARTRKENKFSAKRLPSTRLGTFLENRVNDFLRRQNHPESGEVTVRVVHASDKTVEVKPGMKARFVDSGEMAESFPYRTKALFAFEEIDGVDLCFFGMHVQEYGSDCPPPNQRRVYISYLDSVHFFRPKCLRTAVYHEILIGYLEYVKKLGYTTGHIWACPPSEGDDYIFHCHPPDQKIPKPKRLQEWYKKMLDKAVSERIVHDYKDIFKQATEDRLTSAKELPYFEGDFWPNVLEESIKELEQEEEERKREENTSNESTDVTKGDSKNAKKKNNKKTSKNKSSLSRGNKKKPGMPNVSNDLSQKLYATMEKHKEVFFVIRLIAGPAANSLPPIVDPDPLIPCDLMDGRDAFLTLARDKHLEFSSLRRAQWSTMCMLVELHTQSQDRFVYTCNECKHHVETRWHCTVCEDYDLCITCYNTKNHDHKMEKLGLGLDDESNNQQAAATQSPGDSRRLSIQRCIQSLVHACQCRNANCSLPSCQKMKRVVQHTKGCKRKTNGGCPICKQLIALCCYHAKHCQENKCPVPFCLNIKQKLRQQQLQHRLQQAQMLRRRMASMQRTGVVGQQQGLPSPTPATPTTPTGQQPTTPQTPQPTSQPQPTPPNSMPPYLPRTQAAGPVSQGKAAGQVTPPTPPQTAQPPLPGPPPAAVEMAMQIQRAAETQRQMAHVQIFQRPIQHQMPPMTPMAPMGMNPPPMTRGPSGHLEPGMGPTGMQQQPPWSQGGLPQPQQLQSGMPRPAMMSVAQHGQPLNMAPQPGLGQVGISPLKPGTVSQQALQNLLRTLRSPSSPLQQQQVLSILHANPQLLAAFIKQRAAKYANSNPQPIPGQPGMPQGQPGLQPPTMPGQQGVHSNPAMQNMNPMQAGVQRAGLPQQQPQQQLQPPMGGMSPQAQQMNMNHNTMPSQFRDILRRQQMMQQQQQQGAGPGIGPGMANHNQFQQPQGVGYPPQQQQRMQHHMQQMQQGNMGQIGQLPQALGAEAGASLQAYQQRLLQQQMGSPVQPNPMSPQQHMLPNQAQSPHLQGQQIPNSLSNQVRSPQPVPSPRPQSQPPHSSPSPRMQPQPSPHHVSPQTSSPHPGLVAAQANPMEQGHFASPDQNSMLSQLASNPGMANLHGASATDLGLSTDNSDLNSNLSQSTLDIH

Experiments:
[1] = molecular target: STAT3 (human (endogenous in NTera-2)) (UniProt P40763); experiment: condition: only undifferentiated NTera-2 cells (not induced to differentiate); co-IP; lysates of undifferentiated NTera-2 cells in NP40 lysis buffer (10 mM Tris pH 7.5, 150 mM NaCl, 0.5% NP40, 5 mM EDTA); precipitated with anti-STAT3, blotted with anti-p300
[2] = molecular target: STAT3 (human (endogenous in NTera-2)) (UniProt P40763); experiment: co-IP; lysates of NTera-2 cells 21 days after differentiation (Oct-4 RNAi lentivirus) in NP40 lysis buffer (10 mM Tris pH 7.5, 150 mM NaCl, 0.5% NP40, 5 mM EDTA); precipitated with anti-STAT3, blotted with anti-p300

binding [1]: no binding
binding [2]: binds
Substance: p300 (from UniProt Q09472 1-2414)
